Test results as given in the supplement of paper PMC6078165.
Values are relative to the signal before dosing, not to a vehicle control; the signal also falls without drug.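 Labels refer to human fibroblasts, largely primary: uterine (C12385, HUF), lung (H6013), bone (Hs27A), adrenal (HADF), skin (WS1), plus mammary HMF and breast cancer-associated Hs343T. Cancer lines are basal-like or mesenchymal-like triple-negative breast cancer. The paper counts as hits responses shifting over 3x the replicate standard deviation. The tissue of the other fibroblasts is not given here.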

System: MDAMB436
Test: relative JC-1 red fluorescence (viability) vs pre-drug, coculture with fibroblast (fraction); higher = more viable cancer cells
Description: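 JC-1 labelled TNBC cells cocultured 1:1 (1,500 cells each) with CellTrace Violet stained primary or stromal fibroblasts in 384-well plates in FluoroBrite medium, treated with one of 42 anticancer drugs at 0.1, 1, 10 or 100 uM. JC-1 red fluorescence (mitochondrial integrity in cancer cells only) was read by plate reader every 8 h for 72 h. Values are normalised to each well's pre-drug value. The stock of one drug was tenfold lower, so its dose labels may be too high.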

CO[C@H]1C[C@@H]2CC[C@@H](C)[C@@](O)(O2)C(=O)C(=O)N2CCCC[C@H]2C(=O)O[C@H]([C@H](C)C[C@@H]2CC[C@@H](O)[C@H](OC)C2)CC(=O)[C@H](C)/C=C(\C)[C@@H](O)[C@@H](OC)C(=O)[C@H](C)C[C@H](C)/C=C/C=C/C=C/1C [Rapamycin]
relative JC-1 red fluorescence
Settings	8 h	16 h	24 h	32 h	40 h	48 h	56 h	64 h	72 h
0.1 µM, coculture fibroblast: C12385	0.77382	0.706	0.657	0.572	0.521	0.487	0.462	0.443	0.436
0.1 µM, coculture fibroblast: H6013	0.784	0.738	0.724	0.716	0.704	0.736	0.705	0.696	0.668
0.1 µM, coculture fibroblast: H6019	0.715	0.65	0.626	0.548	0.512	0.494	0.475	0.46	0.445
0.1 µM, coculture fibroblast: H6076	0.727	0.672	0.657	0.62	0.616	0.592	0.616	0.612	0.609
0.1 µM, coculture fibroblast: H6231	0.7772	0.686	0.697	0.613	0.604	0.573	0.561	0.543	0.527
0.1 µM, coculture fibroblast: HADF	0.831	0.78	0.791	0.776	0.771	0.805	0.749	0.749	0.72
0.1 µM, coculture fibroblast: HCFa	0.754	0.707	0.672	0.64	0.62	0.6378	0.5681	0.559	0.505
0.1 µM, coculture fibroblast: HCPF	0.788	0.723	0.694	0.632	0.606	0.57	0.553	0.534	0.513
0.1 µM, coculture fibroblast: HHSteC	0.813	0.779	0.748	0.715	0.706	0.723	0.664	0.652	0.604
0.1 µM, coculture fibroblast: HMF	0.726	0.672	0.656	0.614	0.597	0.561	0.566	0.551	0.544
0.1 µM, coculture fibroblast: HPFa	0.901	0.807	0.782	0.743	0.736	0.753	0.691	0.676	0.624
0.1 µM, coculture fibroblast: HUF	0.839	0.731	0.701	0.627	0.566	0.537	0.517	0.504	0.5
0.1 µM, coculture fibroblast: Hs5	0.7573	0.696	0.678	0.617	0.605	0.563	0.578	0.544	0.532
0.1 µM, coculture fibroblast: Hs27A	0.796	0.724	0.708	0.69	0.665	0.725	0.645	0.63	0.574
0.1 µM, coculture fibroblast: Hs343T	0.737	0.665	0.6318	0.5885	0.573	0.5358	0.539	0.528	0.5197
0.1 µM, coculture fibroblast: WS1	0.752	0.693	0.656	0.56	0.523	0.49	0.469	0.446	0.436
1 µM, coculture fibroblast: C12385	0.827	0.816	0.814	0.749	0.706	0.693	0.681	0.668	0.672
1 µM, coculture fibroblast: H6013	0.846	0.819	0.816	0.806	0.801	0.8188	0.783	0.7721	0.7359
1 µM, coculture fibroblast: H6019	0.787	0.7807	0.787	0.732	0.711	0.704	0.667	0.646	0.618
1 µM, coculture fibroblast: H6076	0.828	0.791	0.805	0.77	0.757	0.745	0.747	0.74	0.734
1 µM, coculture fibroblast: H6231	0.764	0.7339	0.7811	0.7066	0.691	0.664	0.664	0.636	0.626
1 µM, coculture fibroblast: HADF	0.849	0.843	0.842	0.828	0.811	0.835	0.766	0.761	0.719
1 µM, coculture fibroblast: HCFa	0.8177	0.8005	0.785	0.766	0.747	0.758	0.692	0.685	0.628
1 µM, coculture fibroblast: HCPF	0.856	0.848	0.856	0.7933	0.762	0.715	0.69	0.665	0.644
1 µM, coculture fibroblast: HHSteC	0.82188	0.8457	0.845	0.825	0.818	0.85	0.782	0.772	0.72
1 µM, coculture fibroblast: HMF	0.7859	0.752	0.758	0.717	0.706	0.675	0.677	0.657	0.647
1 µM, coculture fibroblast: HPFa	0.898	0.908	0.9	0.863	0.859	0.883	0.81	0.787	0.741
1 µM, coculture fibroblast: HUF	0.846	0.79	0.778	0.703	0.64	0.613	0.591	0.5772	0.5706
1 µM, coculture fibroblast: Hs5	0.814	0.798	0.7951	0.735	0.7228	0.675	0.679	0.653	0.644
1 µM, coculture fibroblast: Hs27A	0.81	0.812	0.822	0.824	0.816	0.897	0.813	0.811	0.737
1 µM, coculture fibroblast: Hs343T	0.812	0.773	0.741	0.7	0.681	0.651	0.637	0.622	0.618
1 µM, coculture fibroblast: WS1	0.798	0.765	0.751	0.678	0.636	0.624	0.599	0.583	0.573
